The list is a part of this screen's results and no random one: it gathers tests that were run many times, whatever their T/C, doses with no T/C, and many T/C values between a quarter and a half above the control. Further doses and runs are listed elsewhere. T/C: endpoint of the treated group in % of that of the vehicle group. Some entries give survivors of the animals treated and no T/C: the source files T/C as zero there, which appears to mark a toxic dose or a test without result, not a measured value. Some doses without a T/C left all or most animals alive at the check, yet need not have been tolerated: survival well below the control is almost never listed, so the zero probably covers shortened survival too. Counts of survivors are from the toxicity check (mostly the fifth day) where no day follows; animals may have died later. Schedules are NCI's codes, taken here to give the interval after Q, in days (D) or hours (H), and the number of doses after X.
Tested on: L1210 leukemia ip in BDF1 mice, survival T/C
Test: NCI In Vivo Anticancer Drug Screen. Data for tumor model L1210 Leukemia (intraperitoneal) in B6D2F1 (BDF1) mice
Settings: T/C endpoint: mean survival time, higher T/C = longer survival
[1] = dose: 200.0 mg/kg/injection, schedule: Q01DX001 (ip), vehicle: Klucel (hydroxypropylcellulose) (HPC)
[2] = dose: 200.0 mg/kg/injection, schedule: Q01DX009 (ip), vehicle: saline with Tween-80
[3] = dose: 100.0 mg/kg/injection, schedule: Q01DX009 (ip), vehicle: Klucel (hydroxypropylcellulose) (HPC)
[4] = dose: 400.0 mg/kg/injection, schedule: Q04DX003 (ip), vehicle: saline with Tween-80

CCOC(=O)C(CC)(OO)c1ccncc1Br (stereo not given)
survivor count [1]: 1 of 6
survivor count (dose: 400.0 mg/kg/injection, schedule: Q01DX001 (ip), vehicle: Klucel (hydroxypropylcellulose) (HPC)): 0 of 6

O=[N+]([O-])c1ccc(N=Nc2c(Cl)cc(O)cc2Cl)cc1
survivor count [2]: 2 of 6

CCCCC(CC)CNC1CCCCC1 (stereo not given)
survivor count (dose: 300.0 mg/kg/injection, schedule: Q01DX009 (ip), vehicle: Klucel (hydroxypropylcellulose) (HPC)): 0 of 3
survivor count (dose: 400.0 mg/kg/injection, schedule: Q04DX002 (ip), vehicle: Klucel (hydroxypropylcellulose) (HPC)): 1 of 3

C/C(=N/OC(=O)N(C)C)c1cccs1
survivor count (dose: 80.0 mg/kg/injection, schedule: Q01DX001 (ip), vehicle: other): 0 of 4
survivor count (dose: 100.0 mg/kg/injection, schedule: Q01DX001 (ip), vehicle: other): 0 of 4
survivor count (dose: 200.0 mg/kg/injection, schedule: Q01DX001 (ip), vehicle: other): 0 of 4
survivor count (dose: 400.0 mg/kg/injection, schedule: Q01DX001 (ip), vehicle: other): 0 of 4

Cc1ccc(NC(=O)Nc2cccc3ccccc23)c(C)c1
survivor count [3]: 6 of 6

Cc1ccc(C(=O)NC(N)=O)cc1
survivor count (dose: 400.0 mg/kg/injection, schedule: Q01DX009 (ip), vehicle: Klucel (hydroxypropylcellulose) (HPC)): 6 of 6

NNC(=S)Nc1ccccc1
survivor count (dose: 10.0 mg/kg/injection, schedule: Q01DX009 (ip), vehicle: saline with Tween-80): 5 of 6
survivor count (dose: 20.0 mg/kg/injection, schedule: Q01DX009 (ip), vehicle: saline with Tween-80): 2 of 6

CCN(CC)C(=O)Nc1cccc(OC(=O)NC)c1
survivor count [4]: 6 of 6

COc1ccc(CCO)cc1OC
survivor count (dose: 100.0 mg/kg/injection, schedule: Q01DX001 (ip), vehicle: carboxymethylcellulose (CMC)): 4 of 4
survivor count (dose: 200.0 mg/kg/injection, schedule: Q01DX001 (ip), vehicle: carboxymethylcellulose (CMC)): 4 of 4

C/C=C(\C)C1(CC)C(=O)NC(=O)N(C)C1=O (stereo not given)
survivor count (dose: 300.0 mg/kg/injection, schedule: Q01DX001 (ip), vehicle: saline): 0 of 6

COc1ccc(C(OCC2OC(n3nnc4c(=O)[nH]c(N)nc43)CC2OC(C)=O)(c2ccccc2)c2ccc(OC)cc2)cc1 (stereo not given)
survivor count (dose: 100.0 mg/kg/injection, schedule: Q01DX001 (ip), vehicle: Klucel (hydroxypropylcellulose) (HPC)): 0 of 6
survivor count [1]: 0 of 6

Cc1ccc(C(=O)[O][Hg][CH2]C2COC([CH2][Hg][O]C(=O)c3ccc(C)cc3)CO2)cc1 (stereo not given)
survivor count (dose: 25.0 mg/kg/injection, schedule: Q01DX009 (ip), vehicle: Klucel (hydroxypropylcellulose) (HPC)): 6 of 6
survivor count (dose: 50.0 mg/kg/injection, schedule: Q01DX009 (ip), vehicle: Klucel (hydroxypropylcellulose) (HPC)): 5 of 6
survivor count [3]: 6 of 6
survivor count (dose: 100.0 mg/kg/injection, schedule: Q04DX003 (ip), vehicle: Klucel (hydroxypropylcellulose) (HPC)): 5 of 6
survivor count (dose: 150.0 mg/kg/injection, schedule: Q04DX003 (ip), vehicle: Klucel (hydroxypropylcellulose) (HPC)): 1 of 6
survivor count (dose: 200.0 mg/kg/injection, schedule: Q04DX003 (ip), vehicle: Klucel (hydroxypropylcellulose) (HPC)): 0 of 6
survivor count (dose: 225.0 mg/kg/injection, schedule: Q04DX003 (ip), vehicle: Klucel (hydroxypropylcellulose) (HPC)): 0 of 6
survivor count (dose: 335.0 mg/kg/injection, schedule: Q04DX003 (ip), vehicle: Klucel (hydroxypropylcellulose) (HPC)): 0 of 6
survivor count (dose: 400.0 mg/kg/injection, schedule: Q04DX003 (ip), vehicle: Klucel (hydroxypropylcellulose) (HPC)): 0 of 6

CC(=O)Nc1ccc(S(=O)(=O)N2CC2)cc1
survivor count (dose: 400.0 mg/kg/injection, schedule: Q01DX005 (ip), vehicle: saline): 2 of 4

NC(=O)c1ccccc1C(Cl)(Cl)Cl
survivor count [2]: 6 of 6
survivor count [4]: 5 of 6

CCOC(OCC)C(=O)C(C#N)c1ccc(C#N)cc1 (stereo not given)
survivor count (dose: 25.0 mg/kg/injection, schedule: Q01DX009 (ip), vehicle: DMSO): 5 of 6
survivor count (dose: 50.0 mg/kg/injection, schedule: Q01DX009 (ip), vehicle: DMSO): 0 of 6
survivor count (dose: 100.0 mg/kg/injection, schedule: Q01DX009 (ip), vehicle: DMSO): 0 of 6
survivor count (dose: 200.0 mg/kg/injection, schedule: Q01DX009 (ip), vehicle: DMSO): 0 of 6
survivor count (dose: 400.0 mg/kg/injection, schedule: Q01DX009 (ip), vehicle: DMSO): 0 of 6

CC(=O)c1ccccc1N1CCCCC1
survivor count (dose: 400.0 mg/kg/injection, schedule: Q04DX002 (ip), vehicle: saline): 0 of 3

c1ccc(C[n+]2ccc(-c3cc[n+](Cc4ccccc4)cc3)cc2)cc1
survivor count (dose: 10.0 mg/kg/injection, schedule: Q01DX001 (ip), vehicle: saline): 0 of 4
survivor count (dose: 20.0 mg/kg/injection, schedule: Q01DX001 (ip), vehicle: saline): 0 of 4
survivor count (dose: 40.0 mg/kg/injection, schedule: Q01DX001 (ip), vehicle: saline): 0 of 4
survivor count (dose: 50.0 mg/kg/injection, schedule: Q01DX001 (ip), vehicle: saline): 0 of 4
survivor count (dose: 80.0 mg/kg/injection, schedule: Q01DX001 (ip), vehicle: saline): 0 of 4
survivor count (dose: 100.0 mg/kg/injection, schedule: Q01DX001 (ip), vehicle: saline): 0 of 4
survivor count (dose: 200.0 mg/kg/injection, schedule: Q01DX001 (ip), vehicle: saline): 0 of 4
survivor count (dose: 400.0 mg/kg/injection, schedule: Q01DX001 (ip), vehicle: saline): 0 of 4
